Some of the results follow.
molecular target: OsWRKY34 (Oryza sativa, UniProt Q0JBA9 1-250); assay: protein-binding microarray (RPBM); PBS, 2% BSA, 51.3 ng/ul salmon testes DNA, 50 uM zinc acetate, 200 nM TF, 25 C, 1 h; high values mean tight binding; details: protein: recombinant; tags: N-terminal polyhistidine and DsRed monomer fusion (pET32a); label: CyDye5-dUTP incorporated in the synthesized complementary strand; 3' TTTTT single-stranded linker to array surface; dsDNA, one strand shown
Summary of the method: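 Ni–NTA purification followed expression in E. coli BL21-CodonPlus of transcription factors fused N-terminally to a polyhistidine tag and DsRed. At 200 nM in PBS with 2% BSA, salmon testes DNA and 50 µM zinc acetate, the protein was incubated for 1 h at 25 °C with a custom Agilent array that had been primer-extended with Cy5-dUTP and blocked with 2% BSA. After washing, the array was read on an Axon 4000B scanner. The binding signal is per-feature fluorescence intensity in arbitrary units.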

By UniProt entry, the sequences of proteins in these tests, tags left out.
UniProt Q0JBA9, entry or part of it: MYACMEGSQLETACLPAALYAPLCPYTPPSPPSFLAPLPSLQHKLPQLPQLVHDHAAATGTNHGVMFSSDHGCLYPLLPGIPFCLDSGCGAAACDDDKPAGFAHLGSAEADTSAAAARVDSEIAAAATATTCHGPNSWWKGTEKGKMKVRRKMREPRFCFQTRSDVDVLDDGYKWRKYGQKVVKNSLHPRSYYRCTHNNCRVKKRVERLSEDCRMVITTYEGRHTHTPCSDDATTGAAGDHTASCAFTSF

Sequence	binding signal
TCCCATGCCACCAATATTGGCCCACTGTCACCTCCTAACCCGGAGTCACCTAGTGCAG	8610 fluorescence intensity (a.u.)
GTCCTCACCCACATGCCGCTGTCACCACCGCTCTGGTCCTCGGAGTCACCTAGTGCAG	8030 fluorescence intensity (a.u.)
ATATTATATATTACCTCTGCCTGCATGGTCCATGTACCATCGGAGTCACCTAGTGCAG	8720 fluorescence intensity (a.u.)
TAGTGGTTATGGGTTTGTGTTTCTATGGTTTTGTGAAATACGGAGTCACCTAGTGCAG	9100 fluorescence intensity (a.u.)
GCTATCCGTCCACCCGTCCATTCATCCTCGCCTTTGCCAGCGGAGTCACCTAGTGCAG	9210 fluorescence intensity (a.u.)
CAGAAACACAATCGTCGCTCGAATCTGCTTCTCATTCTTTCGGAGTCACCTAGTGCAG	8110 fluorescence intensity (a.u.)
TATTACCACGCTTAACCGCGCCAATTACTTCGCCGGGTTACGGAGTCACCTAGTGCAG	9830 fluorescence intensity (a.u.)
TCCTCAATTTCACCTCGTGTTCCAATTCCACTCCGCTCACCGGAGTCACCTAGTGCAG	8330 fluorescence intensity (a.u.)
GCTAGCGGTGCACTTCGTTTTTCTGCTGCACACGCGTCCACGGAGTCACCTAGTGCAG	10500 fluorescence intensity (a.u.)
ATCTTCTCGCCTCTGCTTCTTGCTGCTGCCTAGCTTAGCTCGGAGTCACCTAGTGCAG	9550 fluorescence intensity (a.u.)
GGGAACTTCAATCTAGTTTATCCCTTTGCTCAATTTCAGTCGGAGTCACCTAGTGCAG	9180 fluorescence intensity (a.u.)
CAGCCCACGAAGTCACCAACTGACAGCCCAGCCCATTAACCGGAGTCACCTAGTGCAG	8450 fluorescence intensity (a.u.)
GGGATTAGCAGAACAAGACCTAAAGGGGTAGGGTTCCACTCGGAGTCACCTAGTGCAG	9130 fluorescence intensity (a.u.)
GAAGTTGAACACTCCGTTAATTTTTAGTTGATTTCTTCCACGGAGTCACCTAGTGCAG	8270 fluorescence intensity (a.u.)
ATGTGCTCGACATATGTTTTTTTATTTGTTTTGCTGATGACGGAGTCACCTAGTGCAG	8740 fluorescence intensity (a.u.)
TGTTCATCTCTAGTTTTACTGACCACACTAACTCTGTCACCGGAGTCACCTAGTGCAG	8520 fluorescence intensity (a.u.)
AACCATTAAAAAATCAGTCAAATGTTTTTTATACCTTTTCCGGAGTCACCTAGTGCAG	8330 fluorescence intensity (a.u.)
TACTGTTATTTGCATATTGGAACACTAGTCTTTCACACGTCGGAGTCACCTAGTGCAG	9270 fluorescence intensity (a.u.)
ATCCCCATTTTTTTCCCAAGTGGTACACTGAAATTTTTTTCGGAGTCACCTAGTGCAG	8100 fluorescence intensity (a.u.)
TCTGTTGTATTCTTGGTGGGCGAGTGTCGGAGTTTTTTTCCGGAGTCACCTAGTGCAG	8200 fluorescence intensity (a.u.)
TTGTTGTCCCGTGTCTCCGCCGTCGCGTCACCGCCCAGCACGGAGTCACCTAGTGCAG	10200 fluorescence intensity (a.u.)
CCCGATCGCTTCTTCTTCTTCTTCTTCGTTGCATTCATCTCGGAGTCACCTAGTGCAG	10000 fluorescence intensity (a.u.)
ATGTCCGACTGCGCCATCATTGTCTCCGCTAACGCCATTGCGGAGTCACCTAGTGCAG	8540 fluorescence intensity (a.u.)
TGTTGTGGGATTCCCCTTTCCTACGAACTCTCCCGTCGTTCGGAGTCACCTAGTGCAG	9620 fluorescence intensity (a.u.)
GCCGCCGGCTCACCCGCCACGCGCAACCGCCCGCCGCCGCCGGAGTCACCTAGTGCAG	10400 fluorescence intensity (a.u.)
CCAAATCTGGAGCTGGACCATATGTATCATTACCCAAACACGGAGTCACCTAGTGCAG	8340 fluorescence intensity (a.u.)
ATTTCCAACCATTTCCTACCGTTTTCGTCCCTGGCAAACGCGGAGTCACCTAGTGCAG	8470 fluorescence intensity (a.u.)

16 entries from above, reformatted.
Sequence | binding signal
GCTATCCGTCCACCCGTCCATTCATCCTCGCCTTTGCCAGCGGAGTCACCTAGTGCAG | 9210 fluorescence intensity (a.u.)
CAGAAACACAATCGTCGCTCGAATCTGCTTCTCATTCTTTCGGAGTCACCTAGTGCAG | 8110 fluorescence intensity (a.u.)
TCCTCAATTTCACCTCGTGTTCCAATTCCACTCCGCTCACCGGAGTCACCTAGTGCAG | 8330 fluorescence intensity (a.u.)
GCTAGCGGTGCACTTCGTTTTTCTGCTGCACACGCGTCCACGGAGTCACCTAGTGCAG | 10500 fluorescence intensity (a.u.)
ATCTTCTCGCCTCTGCTTCTTGCTGCTGCCTAGCTTAGCTCGGAGTCACCTAGTGCAG | 9550 fluorescence intensity (a.u.)
GGGAACTTCAATCTAGTTTATCCCTTTGCTCAATTTCAGTCGGAGTCACCTAGTGCAG | 9180 fluorescence intensity (a.u.)
CAGCCCACGAAGTCACCAACTGACAGCCCAGCCCATTAACCGGAGTCACCTAGTGCAG | 8450 fluorescence intensity (a.u.)
GGGATTAGCAGAACAAGACCTAAAGGGGTAGGGTTCCACTCGGAGTCACCTAGTGCAG | 9130 fluorescence intensity (a.u.)
GAAGTTGAACACTCCGTTAATTTTTAGTTGATTTCTTCCACGGAGTCACCTAGTGCAG | 8270 fluorescence intensity (a.u.)
ATGTGCTCGACATATGTTTTTTTATTTGTTTTGCTGATGACGGAGTCACCTAGTGCAG | 8740 fluorescence intensity (a.u.)
TGTTCATCTCTAGTTTTACTGACCACACTAACTCTGTCACCGGAGTCACCTAGTGCAG | 8520 fluorescence intensity (a.u.)
AACCATTAAAAAATCAGTCAAATGTTTTTTATACCTTTTCCGGAGTCACCTAGTGCAG | 8330 fluorescence intensity (a.u.)
TACTGTTATTTGCATATTGGAACACTAGTCTTTCACACGTCGGAGTCACCTAGTGCAG | 9270 fluorescence intensity (a.u.)
CCCGATCGCTTCTTCTTCTTCTTCTTCGTTGCATTCATCTCGGAGTCACCTAGTGCAG | 10000 fluorescence intensity (a.u.)
TGTTGTGGGATTCCCCTTTCCTACGAACTCTCCCGTCGTTCGGAGTCACCTAGTGCAG | 9620 fluorescence intensity (a.u.)
CCAAATCTGGAGCTGGACCATATGTATCATTACCCAAACACGGAGTCACCTAGTGCAG | 8340 fluorescence intensity (a.u.)

(listing goes on)

Sequence	binding signal
TCACGGCCTCAATGGCGTCCTGCCATGCTTTGTTCCTGCACGGAGTCACCTAGTGCAG	10800 fluorescence intensity (a.u.)
CCGTGTAGATTTTAGCTTAATGTGTTCTTGGGTTGCCGTCCGGAGTCACCTAGTGCAG	8630 fluorescence intensity (a.u.)
CACCTCGCGCCGCGCCCCATCCTTATCGTCATGACACGCCCGGAGTCACCTAGTGCAG	8810 fluorescence intensity (a.u.)
TAGCACATATACCATCACATCATTTTTCCTTTGCAACACTCGGAGTCACCTAGTGCAG	8800 fluorescence intensity (a.u.)
AATTATAACATTTTCTTCACCTAAATTTTTTCATCCCCTTCGGAGTCACCTAGTGCAG	8200 fluorescence intensity (a.u.)
CTCATATGCTCATATCTATTGCAACAATCTAAGATATTTTCGGAGTCACCTAGTGCAG	10600 fluorescence intensity (a.u.)
ATACTTATTTGCTCGCATATTTGGCTTCTTTCTGTTTAGACGGAGTCACCTAGTGCAG	11100 fluorescence intensity (a.u.)
CATAAGAGAGGAGGAGGGAGAGGTAGGGTCGTGGGGAAGGCGGAGTCACCTAGTGCAG	8260 fluorescence intensity (a.u.)
TTTTTCCTCGTCCCAAAAGCTCTTTAGGTCCTGTTTCTTTCGGAGTCACCTAGTGCAG	13200 fluorescence intensity (a.u.)
TGTATTCTCACATCTCCAGCTCTGTCTCCACATGATACCACGGAGTCACCTAGTGCAG	10500 fluorescence intensity (a.u.)
GAAACACCCGTCCGATTCACATCCAACGATCCGCAACCCACGGAGTCACCTAGTGCAG	10300 fluorescence intensity (a.u.)
TTATGTACCGGGTTGGAATATATTACACCTTCTTCATTTTCGGAGTCACCTAGTGCAG	8930 fluorescence intensity (a.u.)
TTGGCCAGCAGCACAGGGATCGAGCGAGTTATACCTATTCCGGAGTCACCTAGTGCAG	9140 fluorescence intensity (a.u.)
GATTCTACGCGACTCATCGTCTTCCTCTTCCCTCGAGCAGCGGAGTCACCTAGTGCAG	8380 fluorescence intensity (a.u.)
AATCGCATATAGTTTAGGGGCTAAACTCGACTTTATTTTCCGGAGTCACCTAGTGCAG	10000 fluorescence intensity (a.u.)
CTCTAATATATTGGGCAATACTCTTGCCGCTTTCACCTTACGGAGTCACCTAGTGCAG	8690 fluorescence intensity (a.u.)
TTATGGCTGTGTTTAGTTTCTGAAATTGAGGAGAAGTTCACGGAGTCACCTAGTGCAG	9300 fluorescence intensity (a.u.)
CATGAATTACTGGCATCTTGTAACGGATCCCCTCGTCAAACGGAGTCACCTAGTGCAG	9980 fluorescence intensity (a.u.)
GCCGCGCCGACCATCCCACCTTGTTTGGTTGTAATTTCTTCGGAGTCACCTAGTGCAG	9000 fluorescence intensity (a.u.)
CTCCGTACATCTTTCATTATTTTTATCCTTTTATTAAATGCGGAGTCACCTAGTGCAG	9250 fluorescence intensity (a.u.)
CGATTTTGCGGTTTTTTGGCTGGCGTGTTCGCTTCGCACCCGGAGTCACCTAGTGCAG	10900 fluorescence intensity (a.u.)
ACTGAAGGCGGTTTTCTCACACTTCACCTACCTCGTTGACCGGAGTCACCTAGTGCAG	15800 fluorescence intensity (a.u.)
CCGTCTCGGTCTCGTACTCTCGTGCACCGCCCCGCCCGGCCGGAGTCACCTAGTGCAG	10800 fluorescence intensity (a.u.)
ACACTAATCACTACTTGCCACATGCAGTAACACTCGCCTACGGAGTCACCTAGTGCAG	8760 fluorescence intensity (a.u.)
AGTCACTACTCTTCATTGAATTAATCTGGGGCATAATTTCCGGAGTCACCTAGTGCAG	9910 fluorescence intensity (a.u.)
TAAATTATTGCAATGCTCACTTTCTCCATGGAATCAACTGCGGAGTCACCTAGTGCAG	8560 fluorescence intensity (a.u.)
AGCCATTGCCCTCACCGTCTATGCCATTGTGGCATGGTCACGGAGTCACCTAGTGCAG	8630 fluorescence intensity (a.u.)

From PMC7819943, “Rice protein-binding microarrays: a tool to detect cis-acting elements near promoter regions in rice”
